# Screening data, single-dose tests

The chains behind the UniProt entries cited, without tags or fusion partners. Residues count along the entry.
UniProt A4I591, 1-473: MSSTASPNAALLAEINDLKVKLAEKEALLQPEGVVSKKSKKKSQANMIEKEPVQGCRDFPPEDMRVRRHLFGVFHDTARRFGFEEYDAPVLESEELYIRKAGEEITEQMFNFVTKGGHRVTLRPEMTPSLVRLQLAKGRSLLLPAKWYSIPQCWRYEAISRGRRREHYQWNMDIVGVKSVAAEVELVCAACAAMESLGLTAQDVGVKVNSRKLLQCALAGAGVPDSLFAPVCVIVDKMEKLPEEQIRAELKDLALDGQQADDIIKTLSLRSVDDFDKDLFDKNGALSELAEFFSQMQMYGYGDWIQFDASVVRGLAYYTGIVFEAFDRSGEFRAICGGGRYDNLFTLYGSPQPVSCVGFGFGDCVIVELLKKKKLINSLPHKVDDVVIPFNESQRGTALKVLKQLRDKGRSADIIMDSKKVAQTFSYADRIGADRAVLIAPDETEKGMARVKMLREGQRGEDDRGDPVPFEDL
UniProt Q8IDJ8, 1-583: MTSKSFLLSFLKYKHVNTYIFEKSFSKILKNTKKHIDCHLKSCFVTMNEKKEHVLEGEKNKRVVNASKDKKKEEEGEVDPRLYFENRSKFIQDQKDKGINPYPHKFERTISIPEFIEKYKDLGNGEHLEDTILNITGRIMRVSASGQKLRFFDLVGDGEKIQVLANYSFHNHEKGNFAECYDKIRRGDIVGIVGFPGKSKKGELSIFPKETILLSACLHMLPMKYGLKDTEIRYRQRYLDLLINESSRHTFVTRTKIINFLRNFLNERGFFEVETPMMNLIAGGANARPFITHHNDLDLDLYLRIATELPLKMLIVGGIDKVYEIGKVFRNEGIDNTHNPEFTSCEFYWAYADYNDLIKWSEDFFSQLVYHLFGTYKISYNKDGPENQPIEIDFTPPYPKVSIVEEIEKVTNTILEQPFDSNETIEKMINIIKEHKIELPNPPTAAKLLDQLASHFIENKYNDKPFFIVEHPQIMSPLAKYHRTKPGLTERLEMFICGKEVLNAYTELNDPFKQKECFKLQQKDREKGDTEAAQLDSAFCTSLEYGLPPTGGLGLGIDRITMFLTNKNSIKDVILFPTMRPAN

Measurements from “University of Dundee, Small-Polar-MMV Screening Library” (2021), ChEMBL document CHEMBL3988442.

LiHisRS: 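Histidine-tRNA ligase, Leishmania infantum (UniProt A4I591). Enzyme assay of histidyl-tRNA synthetase; the read-out is not stated. Concentration: 30 µM. Direction is inferred from retests: higher values go with stronger inhibition. The assay is labelled LdHisRS but filed under L. infantum. Of about 69,000 compounds tested this way, about 410 (0.6%) reached 50% or more in at least one test.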
PfKRS1: 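Lysine-tRNA ligase, Plasmodium falciparum 3D7 (UniProt Q8IDJ8). Enzyme assay of the cytosolic lysyl-tRNA synthetase in 384-well plates, read by luminescence. Concentration: 30 µM. Higher reads as stronger inhibition, judged from the few compounds that gave an IC50. Of about 69,000 compounds tested this way, about 49 (0.071%) reached 50% or more in at least one test.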

Results are given as percent effect. How 0% and 100% were set is not recorded. Most values in the screen are low, and negative values occur. This is an unselected part of the compounds tested.

* CCn1c(N)nc2cc(C(=O)NCc3cccc(C)c3C)cnc21 | LiHisRS: 1.205%; PfKRS1: -10.48%
* NCc1cnn(-c2ccccc2C(=O)N2CCCC(C(N)=O)C2)c1 (centres undefined) | LiHisRS: 8.451%; PfKRS1: -3.574%
* CCC[C@H]1CN(Cc2cncn2C)C[C@@H]1NC(=O)C1(COC)CCC1 | LiHisRS: 8.571%; PfKRS1: 1.868%
* COc1cccc(N2Cc3nc(=O)n(Cc4cccc(F)c4)n3C2=O)c1 | LiHisRS: 11.96%; PfKRS1: 4.343%
* CC(C)OCCOCC(O)CN(C)C(=O)Nc1ccc(F)cc1Cl (centres undefined) | LiHisRS: 1.571%; PfKRS1: 2.34%
* Cc1cncc(C2CCCN2CC(N)=O)n1 (centres undefined) | LiHisRS: 8.511%; PfKRS1: 0.1831%
* O=S(=O)(c1ccccc1)N1CCOCC(Cc2cccnc2)C1 (centres undefined) | LiHisRS: 15.71%; PfKRS1: -0.876%
* O=C1CCCN1CC1CN(C(=O)N2CCOCC2)Cc2nccn2C1 (centres undefined) | LiHisRS: 16.81%; PfKRS1: 2.054%
* COc1ccc(-c2nc(CCNC(=O)NCC3CCOC3)co2)cc1 (centres undefined) | LiHisRS: 15.04%; PfKRS1: 5.495%
* O=C(O)[C@H]1CN(Cc2ccccc2)C[C@@H]1C(=O)c1ccccc1 | LiHisRS: 5.594%; PfKRS1: -0.2863%
* Cc1cccc(-c2noc([C@@H]3C[C@@H](O)CN3CC3CCCCC3)n2)c1 | LiHisRS: 8.333%; PfKRS1: 1.618%
* CC(=O)N1CCC(c2nc3ccc(-c4cccc(F)c4)cn3n2)CC1 | LiHisRS: 19.23%; PfKRS1: 1.918%
* Cc1nn(CCC#N)c(C)c1[C@@H]1C=C[C@@H](NCc2cccc(Cl)c2)C1 | LiHisRS: 50%; PfKRS1: 3.584%
* CC(=O)N1CCC(Cc2cnc(-c3c(C)n[nH]c3C)cn2)C1 (centres undefined) | LiHisRS: -51.82%; PfKRS1: 1.918%
* CN(C)C(=O)Cn1c(C2CC2)c(CN2CCSCC2)c2cccnc21 | LiHisRS: 17.02%; PfKRS1: 0.658%
* CC(C(=O)N1CCCN(c2ccc(C#N)cc2)CC1)n1cccn1 (centres undefined) | LiHisRS: 13.39%; PfKRS1: 1.519%
* CCS(=O)(=O)N1CCn2c(COCC3CCOCC3)cnc2C1C (centres undefined) | LiHisRS: 19.66%; PfKRS1: 1.448%
* CN(CCc1ncnn1-c1ccccc1Cl)C1CCS(=O)(=O)C1 (centres undefined) | LiHisRS: 8.434%; PfKRS1: -4.804%
* c1cc(CNCc2ccnc(N3CCOCC3)c2)c2c(c1)OCCCO2 | LiHisRS: 24.24%; PfKRS1: 2.981%
* CN1CCC(C(=O)NCc2nncn2-c2ccccc2)CC1=O (centres undefined) | LiHisRS: 14.29%; PfKRS1: 5.274%
* CCc1ccc(CNC(=O)NC2CCCc3c2cnn3CCO)s1 (centres undefined) | LiHisRS: 22.32%; PfKRS1: 4.712%
* Cc1ccc(CN2CCCC3(CCCCN3S(C)(=O)=O)C2)s1 (centres undefined) | LiHisRS: 16%; PfKRS1: 1.038%
* COCCN1C(=O)[C@]2(CC[C@@H]3CN(Cc4ccccc4F)C[C@@H]32)N=C1C | LiHisRS: 19.27%; PfKRS1: 2.346%

Some entries from above, unchanged:

{"compound": "COc1ccc(-c2nc(CCNC(=O)NCC3CCOC3)co2)cc1", "stereo": "centres undefined", "LiHisRS": 15.04, "PfKRS1": 5.495}
{"compound": "CN(CCc1ncnn1-c1ccccc1Cl)C1CCS(=O)(=O)C1", "stereo": "centres undefined", "LiHisRS": 8.434, "PfKRS1": -4.804}
{"compound": "CC(C)OCCOCC(O)CN(C)C(=O)Nc1ccc(F)cc1Cl", "stereo": "centres undefined", "LiHisRS": 1.571, "PfKRS1": 2.34}